The campaign covered roughly 340,000 compounds. About 170 (0.05%) were called active. The inconclusive results got no clear call from the source; some entries with a clear call stand among them for comparison. Calls follow the shape of the dose curve; as a rule, active = well fitted inhibition curve with a large enough effect in the signal ratio, with a control signal flat (not every such curve was filed as active); inconclusive = small, poorly fitted or top-dose-only effect, or effect the other way, or a change in a side signal; inactive = flat fitted curve, though single readings scatter; the % refers to the signal ratio. A potency beside an inconclusive call is a rough fit, not a confirmed value.
Assay: qHTS Assay to Find Inhibitors of Chronic Active B-Cell Receptor Signaling;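 as to activity change, negative = inhibition: plate controls were basal doxycycline-induced cells for no effect and cells given 10 µM MG132 for full effect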
Settings: ABC-DLBCL IkBa-CBG/CBR reporter, luminescence ratio (green luciferase fused to IkBa over red control in TMD8 lymphoma cells), 4 h; activity change, negative = inhibition: at 46.1 µM (top of the series) unless noted
Method in brief: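 TMD8 human ABC-DLBCL cells with doxycycline-inducible IκBα–green luciferase fusion and unfused red luciferase, in 0.5% FBS medium; compounds up to 46 uM, 4 h at 37C. Green/red luminescence ratio, filter-overlap corrected, fitted to concentration-response curves.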
Potency is read from the fitted curve at half-maximal effect.

For `O=C1CSc2ccc(S(=O)(=O)N3CCN(c4ccccc4)CC3)cc2N1`, which activity change, negative = inhibition is on record?
Its activity change, negative = inhibition is inconclusive: 1.41%.

Which activity change, negative = inhibition does the source give for `CCOc1ccc2oc(C(=O)N(C)CCc3ccc(OC)c(OC)c3)c(C)c2c1` here?
Its activity change, negative = inhibition is inconclusive: -2.42%.

For `CC(C)CCNC(=O)C1CC(c2cccc(F)c2)=NO1` (centres undefined), which activity change, negative = inhibition is on record?
The activity change, negative = inhibition was inconclusive: 6.88%.

For `COc1ccc(-c2cc(C(=O)NCC(C)C)no2)cc1`, which Potency is on record?
Its Potency is inconclusive: 20.6 µM [falling, partial curve].

With `Cc1ccccc1-c1cc(C(=O)Nc2nc3c(s2)CCCC3)c2ccccc2n1` as the compound, how does the activity change, negative = inhibition read?
Its activity change, negative = inhibition is inconclusive: -21.5%.

For `O=C(/C=C/c1ccc(S(=O)(=O)N2CCOCC2)cc1)NC(=S)Nc1ccc(Cl)cc1Cl`, which activity change, negative = inhibition is on record?
The activity change, negative = inhibition was inconclusive: 3.37%.

Which activity change, negative = inhibition does the source give for `CCOC(=O)c1csc(N/N=C2\CCCc3ccccc32)n1` here?
The activity change, negative = inhibition was inconclusive: -0.748%.

For `COc1ccccc1C1CCN(C(=O)c2cccc([N+](=O)[O-])c2)CC1`, which activity change, negative = inhibition is on record?
The activity change, negative = inhibition was inconclusive: -13.5%.

Which activity change, negative = inhibition does the source give for `COc1ccc2c(-c3ccccc3)cc(SCC(=O)N(C)C)nc2c1` here?
The activity change, negative = inhibition was inconclusive: -15%.

For `CCOC(=O)N1CCC(N(CCN(C)C)C(=S)Nc2ccc(OCC)cc2)CC1`, which activity change, negative = inhibition is on record?
The activity change, negative = inhibition was inconclusive: 11.7%.

With `OCCNc1nc(NCCC2=CCCCC2)nc(N2CCOCC2)n1` as the compound, how does the activity change, negative = inhibition read?
The activity change, negative = inhibition was inconclusive: -7.85%.

With `CCOc1cc(C(=O)CSc2nnc(CNc3ccc(Cl)cc3)o2)ccc1NC(=O)CC` as the compound, how does the activity change, negative = inhibition read?
The activity change, negative = inhibition was inconclusive: 4.35%.

With `CC(C)[C@H](NS(=O)(=O)c1ccc2c(c1)OCCO2)C(=O)OCC(=O)Nc1ccccc1` as the compound, how does the Potency read?
Its Potency is inconclusive: 14.6 µM [falling, partial curve].

For `O=C(Cc1ccc(Br)cc1)Nc1cccc(-c2cn3c(n2)SCC3)c1`, which “activity change, negative = inhibition” value is on record?
The value was inactive: -2.05%.

With `CCn1c(SCC(=O)Nc2nc3ccccc3s2)nc2c(c1=O)SC(C)C2` (centres undefined) as the compound, how does the activity change, negative = inhibition read?
Its activity change, negative = inhibition is inconclusive: -15.3%.

With `CCOc1ccc(N2CC(C(=O)Nc3cccnc3)CC2=O)cc1` (centres undefined) as the compound, how does the activity change, negative = inhibition read?
Its activity change, negative = inhibition is inconclusive: 5.42%.

For `CCOC(=O)c1sc(=S)n(-c2ccc(F)c(F)c2)c1N`, which Potency is on record?
Its Potency is inconclusive: 23.1 µM [rising, partial curve, poor fit].

With `COc1ccc(CNC(=O)C(CC(C)C)NC(=O)c2ccccc2C)cc1` (centres undefined) as the compound, how does the activity change, negative = inhibition read?
Its activity change, negative = inhibition is inconclusive: -3.94%.

Which Potency does the source give for `O=C(CN1C(=O)CC(c2ccco2)Sc2ccccc21)NC1CCCCC1` (centres undefined) here?
The Potency was inconclusive: 6.31 µM [falling, single point].

Which Potency does the source give for `Cc1cccc(NC(=O)c2cc3c([nH]c4ccccc43)c(C)n2)c1C` here?
Its Potency is inconclusive: 13 µM [falling, partial curve].

Which activity change, negative = inhibition does the source give for `O=C(OC1CCCCC1)c1ccc(NC(=O)c2ccco2)cc1` here?
Its activity change, negative = inhibition is inconclusive: 2.2%.

For `COCCCn1c(=O)/c(=C\c2ccccc2OC(C)C)s/c1=C(/C#N)C(=O)Nc1ccc(C(=O)O)cc1`, which Potency is on record?
Its Potency is inconclusive: 10 µM [falling, partial curve].

With `Cn1cc(CNC(=O)CC2C(=O)NCCN2CC(C)(C)C)cn1` (centres undefined) as the compound, how does the Potency read?
The Potency was inconclusive: 2.82 µM [falling, partial curve, poor fit].

For `CCOc1ccc2nc(NC(=O)c3ccc(OCC4CCCO4)cc3)sc2c1` (centres undefined), which Potency is on record?
Its Potency is inconclusive: 16.4 µM [falling, partial curve].

For `O=C(CN1C(=O)c2ccccc2S1(=O)=O)NCCc1ccc(F)cc1`, which activity change, negative = inhibition is on record?
Its activity change, negative = inhibition is inconclusive: 1.43%.

For `Brc1cccc(OCCSc2ncccn2)c1`, which activity change, negative = inhibition is on record?
The activity change, negative = inhibition was inconclusive: 10%.

Which Potency does the source give for `Cn1cccc1C(=O)NNC(=O)c1ccccc1Br` here?
The Potency was inconclusive: 6.51 µM [falling, partial curve, poor fit].

For `O=C(COc1ccccc1)OCC(=O)c1ccc(O)cc1O`, which “activity change, negative = inhibition” value is on record?
Its value is inactive: -1.31%.

With `O=C(Nc1ccc(N2CCCC2)cc1)c1ccccc1F` as the compound, how does the Potency read?
The Potency was inconclusive: 3.26 µM [falling, partial curve, poor fit].

For `Cc1ccc(NC(=O)COc2cccc(-n3cnnn3)c2)cc1[N+](=O)[O-]`, which activity change, negative = inhibition is on record?
Its activity change, negative = inhibition is inconclusive: -7.88%.

For `CCOC(=O)C1=C(C)N(C)C(=S)NC1c1ccccc1` (centres undefined), which “activity change, negative = inhibition” value is on record?
Its value is inactive: 11%.

For `CC(C)(C)NC(=O)CCN(/N=C/c1ccccc1)C1=NS(=O)(=O)c2ccccc21`, which “activity change, negative = inhibition” value is on record?
Its value is inactive: -1.77%.

Which Potency does the source give for `Cc1cccc(-n2nnc(C(=O)NCc3ccc4c(c3)OCO4)c2N)c1` here?
The Potency was inconclusive: 12.6 µM [falling, partial curve].

For `CC1CC(C)CN(C(=O)c2ccc3ncsc3c2)C1` (centres undefined), which activity change, negative = inhibition is on record?
Its activity change, negative = inhibition is inconclusive: 8.4%.

For `CCOC(=O)C1CCN(c2ccc(-c3cccs3)nn2)CC1`, which “activity change, negative = inhibition” value is on record?
Its value is inactive: 0.0098%.

With `Cc1ccc(C(=O)NC(=S)NNC(=O)c2ccccc2[N+](=O)[O-])cc1` as the compound, how does the activity change, negative = inhibition read?
The activity change, negative = inhibition was inconclusive: -26.6%.

For `CCOC(=O)C1=C(C)NC2=C(C(=O)CCC2)C1c1cn(Cc2ccc(Cl)cc2Cl)nc1-c1ccccc1` (centres undefined), which activity change, negative = inhibition is on record?
Its activity change, negative = inhibition is inconclusive: 9.83%.

With `O=c1c2ccccc2nc(-c2ccoc2)n1CCc1ccccc1` as the compound, how does the Potency read?
The Potency was inconclusive: 1.64 µM [rising, partial curve, poor fit].

For `O=C(N/N=C/c1c[nH]c2ccccc12)c1cc2ccccc2o1`, which activity change, negative = inhibition is on record?
The activity change, negative = inhibition was inconclusive: -21.5%.

With `Cc1cc(C)cc(NC(=O)c2cc(S(=O)(=O)NCc3ccco3)ccc2F)c1` as the compound, how does the activity change, negative = inhibition read?
Its activity change, negative = inhibition is inconclusive: 1.39%.

Which activity change, negative = inhibition does the source give for `CC(C)(C)OC(=O)N1CCN(C(=O)c2[nH]cnc2C(=O)Nc2nccs2)CC1` here?
Its activity change, negative = inhibition is inconclusive: 12.1%.

Which activity change, negative = inhibition does the source give for `COC(=O)c1cccc(N(CC(=O)NC2CCCC2)C(=O)CNC(=O)c2cccs2)c1` here?
Its activity change, negative = inhibition is inconclusive: -8.49%.

For `Cc1sc(N/N=C/c2cccnc2)nc1-c1ccc(Cl)cc1`, which activity change, negative = inhibition is on record?
The activity change, negative = inhibition was inconclusive: 12.7%.

For `COc1ccc(NC(=O)Cn2nnc(-c3ccccc3NS(=O)(=O)c3ccc(OC)cc3)n2)cc1`, which Potency is on record?
The Potency was inconclusive: 5.17 µM [falling, full curve].

Which Potency does the source give for `COc1ccc(/C=N/NC(=O)c2ccccc2O)cc1Cn1cc([N+](=O)[O-])cn1` here?
The Potency was inconclusive: 25.1 µM [falling, partial curve].

For `CC1CCCN(C(=O)c2ccc3c(c2NCCO)C(=O)c2ccccc2C3=O)C1` (centres undefined), which Potency is on record?
The Potency was inconclusive: 4.11 µM [rising, partial curve, poor fit].

Which activity change, negative = inhibition does the source give for `Cc1occc1C(=O)N/N=C/C1=C(N2CCOCC2)C(=C\c2ccc(Cl)cc2Cl)/CC1` here?
Its activity change, negative = inhibition is inconclusive: -15.7%.

For `CC1=C/C(=N\OS(=O)(=O)c2ccccc2)C=CC1=O`, which activity change, negative = inhibition is on record?
The activity change, negative = inhibition was inconclusive: -8%.

Which “activity change, negative = inhibition” value does the source give for `CCc1noc(C)c1C(=O)N1CCN(S(=O)(=O)c2c(C)c(C)cc(C)c2C)CC1` here?
The value was inactive: 1.51%.

Source: PubChem BioAssay AID493014 (National Center for Advancing Translational Sciences (NCATS), 2011)
